Test results from the supplement of paper PMC10849652.
The list shows a part of the results.

The chains behind the UniProt entries cited, without tags or fusion partners. Where a name states a change or a piece, a line headed by the entry shows the natural chain unless it says otherwise.
UniProt Q15291, whole entry, looked up: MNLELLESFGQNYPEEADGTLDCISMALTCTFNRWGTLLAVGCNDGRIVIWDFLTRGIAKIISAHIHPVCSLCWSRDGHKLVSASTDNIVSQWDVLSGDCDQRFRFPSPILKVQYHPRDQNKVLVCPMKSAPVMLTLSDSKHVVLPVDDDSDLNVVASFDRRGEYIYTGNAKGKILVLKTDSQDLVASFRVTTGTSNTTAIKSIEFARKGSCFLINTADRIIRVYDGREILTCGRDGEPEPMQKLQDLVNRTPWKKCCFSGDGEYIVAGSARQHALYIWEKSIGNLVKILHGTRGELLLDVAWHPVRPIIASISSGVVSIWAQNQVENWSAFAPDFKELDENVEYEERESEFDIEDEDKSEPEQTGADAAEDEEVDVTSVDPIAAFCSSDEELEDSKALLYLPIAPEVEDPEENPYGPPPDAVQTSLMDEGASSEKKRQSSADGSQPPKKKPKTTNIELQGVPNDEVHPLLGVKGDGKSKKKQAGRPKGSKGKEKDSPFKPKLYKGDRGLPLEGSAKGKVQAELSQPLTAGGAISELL
UniProt P54727: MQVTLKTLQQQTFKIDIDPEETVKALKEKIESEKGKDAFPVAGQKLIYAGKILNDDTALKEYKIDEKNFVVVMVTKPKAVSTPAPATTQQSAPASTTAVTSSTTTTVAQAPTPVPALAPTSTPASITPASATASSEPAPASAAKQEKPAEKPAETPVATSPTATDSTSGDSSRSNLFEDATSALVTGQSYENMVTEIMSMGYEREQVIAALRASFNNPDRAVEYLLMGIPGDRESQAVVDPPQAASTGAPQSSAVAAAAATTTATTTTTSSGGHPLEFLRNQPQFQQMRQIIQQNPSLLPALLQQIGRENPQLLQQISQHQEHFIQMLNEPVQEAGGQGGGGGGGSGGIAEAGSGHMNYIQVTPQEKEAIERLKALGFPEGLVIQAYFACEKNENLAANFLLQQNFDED
UniProt Q15042: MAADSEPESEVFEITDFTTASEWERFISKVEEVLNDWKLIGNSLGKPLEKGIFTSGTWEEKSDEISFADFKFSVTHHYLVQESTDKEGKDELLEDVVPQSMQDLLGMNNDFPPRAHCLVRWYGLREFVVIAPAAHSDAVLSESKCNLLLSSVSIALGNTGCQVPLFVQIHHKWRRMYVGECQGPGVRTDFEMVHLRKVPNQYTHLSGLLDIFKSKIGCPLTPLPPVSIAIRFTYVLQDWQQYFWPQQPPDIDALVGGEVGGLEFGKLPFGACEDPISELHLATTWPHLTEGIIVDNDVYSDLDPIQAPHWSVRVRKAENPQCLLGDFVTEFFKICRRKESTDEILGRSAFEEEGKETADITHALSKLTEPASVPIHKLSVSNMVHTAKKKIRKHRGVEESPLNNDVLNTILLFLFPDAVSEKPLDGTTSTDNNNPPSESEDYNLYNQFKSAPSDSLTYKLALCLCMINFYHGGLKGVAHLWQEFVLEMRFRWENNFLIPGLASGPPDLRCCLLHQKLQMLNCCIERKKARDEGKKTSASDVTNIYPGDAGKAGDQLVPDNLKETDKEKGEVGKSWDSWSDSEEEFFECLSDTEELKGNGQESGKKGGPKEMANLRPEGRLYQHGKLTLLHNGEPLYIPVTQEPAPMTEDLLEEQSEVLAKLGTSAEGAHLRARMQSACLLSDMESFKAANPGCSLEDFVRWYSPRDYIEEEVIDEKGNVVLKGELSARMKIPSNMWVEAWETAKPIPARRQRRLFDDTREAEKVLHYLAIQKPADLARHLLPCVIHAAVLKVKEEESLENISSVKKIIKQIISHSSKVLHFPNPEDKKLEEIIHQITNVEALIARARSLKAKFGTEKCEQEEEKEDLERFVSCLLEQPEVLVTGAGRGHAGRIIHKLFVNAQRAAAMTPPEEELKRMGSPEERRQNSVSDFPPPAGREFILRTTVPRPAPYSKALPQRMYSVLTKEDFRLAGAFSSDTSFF
UniProt P20338: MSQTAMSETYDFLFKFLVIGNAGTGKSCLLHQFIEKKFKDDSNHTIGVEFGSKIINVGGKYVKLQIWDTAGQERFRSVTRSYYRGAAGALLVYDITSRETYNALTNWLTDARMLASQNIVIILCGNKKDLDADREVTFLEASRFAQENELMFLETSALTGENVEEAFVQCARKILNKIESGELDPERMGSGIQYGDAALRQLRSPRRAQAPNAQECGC
UniProt P78406: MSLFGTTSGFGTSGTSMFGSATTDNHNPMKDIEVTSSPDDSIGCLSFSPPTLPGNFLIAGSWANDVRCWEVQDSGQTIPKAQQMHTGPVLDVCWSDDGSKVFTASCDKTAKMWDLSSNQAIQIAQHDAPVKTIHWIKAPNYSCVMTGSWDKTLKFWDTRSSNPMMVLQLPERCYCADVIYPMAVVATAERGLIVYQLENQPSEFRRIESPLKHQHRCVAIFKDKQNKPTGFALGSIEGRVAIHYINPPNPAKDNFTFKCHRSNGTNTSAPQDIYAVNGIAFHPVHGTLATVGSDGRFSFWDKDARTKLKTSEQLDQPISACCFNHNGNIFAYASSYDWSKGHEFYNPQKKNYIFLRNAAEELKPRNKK
UniProt Q3YEC7: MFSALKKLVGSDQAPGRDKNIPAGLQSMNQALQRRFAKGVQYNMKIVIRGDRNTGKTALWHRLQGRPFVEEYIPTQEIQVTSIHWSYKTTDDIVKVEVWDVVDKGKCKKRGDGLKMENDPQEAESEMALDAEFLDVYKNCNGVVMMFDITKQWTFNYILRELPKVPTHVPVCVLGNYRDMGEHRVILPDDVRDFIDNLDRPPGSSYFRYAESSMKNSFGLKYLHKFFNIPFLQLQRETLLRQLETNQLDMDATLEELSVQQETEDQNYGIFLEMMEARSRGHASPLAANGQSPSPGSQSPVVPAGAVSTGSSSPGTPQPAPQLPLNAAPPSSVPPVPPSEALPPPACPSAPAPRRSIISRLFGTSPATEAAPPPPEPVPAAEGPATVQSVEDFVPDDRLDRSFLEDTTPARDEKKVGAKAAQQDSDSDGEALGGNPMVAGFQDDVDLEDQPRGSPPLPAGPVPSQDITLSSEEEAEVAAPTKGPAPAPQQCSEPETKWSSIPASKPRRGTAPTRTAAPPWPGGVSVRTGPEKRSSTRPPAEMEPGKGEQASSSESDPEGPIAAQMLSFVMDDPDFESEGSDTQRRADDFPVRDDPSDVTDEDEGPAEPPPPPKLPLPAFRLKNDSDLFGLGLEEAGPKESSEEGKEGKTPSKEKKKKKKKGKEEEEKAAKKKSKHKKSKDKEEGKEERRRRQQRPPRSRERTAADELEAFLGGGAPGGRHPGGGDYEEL
UniProt Q9NP72: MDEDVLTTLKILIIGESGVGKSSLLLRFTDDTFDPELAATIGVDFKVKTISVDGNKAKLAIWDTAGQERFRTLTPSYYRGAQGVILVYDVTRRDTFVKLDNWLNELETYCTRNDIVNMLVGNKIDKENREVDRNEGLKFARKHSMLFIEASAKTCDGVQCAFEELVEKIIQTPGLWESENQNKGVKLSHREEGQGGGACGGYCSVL
UniProt P54725: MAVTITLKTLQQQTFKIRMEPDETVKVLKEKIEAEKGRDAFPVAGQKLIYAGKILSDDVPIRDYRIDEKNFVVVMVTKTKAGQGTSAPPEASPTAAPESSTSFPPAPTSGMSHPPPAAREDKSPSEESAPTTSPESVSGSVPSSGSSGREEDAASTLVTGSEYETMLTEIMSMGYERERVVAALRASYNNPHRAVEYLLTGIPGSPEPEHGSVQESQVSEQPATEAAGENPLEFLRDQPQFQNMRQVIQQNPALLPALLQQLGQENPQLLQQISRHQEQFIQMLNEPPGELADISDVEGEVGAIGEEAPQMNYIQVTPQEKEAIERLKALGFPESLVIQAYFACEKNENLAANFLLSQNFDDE
UniProt P62820, whole entry, looked up: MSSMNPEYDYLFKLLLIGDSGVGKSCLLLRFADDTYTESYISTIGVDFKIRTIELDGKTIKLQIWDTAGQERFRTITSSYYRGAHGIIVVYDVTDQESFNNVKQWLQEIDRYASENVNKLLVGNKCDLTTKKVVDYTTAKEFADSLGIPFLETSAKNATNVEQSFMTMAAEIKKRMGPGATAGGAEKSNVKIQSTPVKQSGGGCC
UniProt Q969Q5: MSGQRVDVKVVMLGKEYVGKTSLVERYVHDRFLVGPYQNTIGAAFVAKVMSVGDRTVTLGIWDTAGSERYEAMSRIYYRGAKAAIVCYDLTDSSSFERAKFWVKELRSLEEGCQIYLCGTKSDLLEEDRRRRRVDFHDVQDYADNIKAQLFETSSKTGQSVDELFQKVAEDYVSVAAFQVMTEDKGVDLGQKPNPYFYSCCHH
UniProt Q5HYI8: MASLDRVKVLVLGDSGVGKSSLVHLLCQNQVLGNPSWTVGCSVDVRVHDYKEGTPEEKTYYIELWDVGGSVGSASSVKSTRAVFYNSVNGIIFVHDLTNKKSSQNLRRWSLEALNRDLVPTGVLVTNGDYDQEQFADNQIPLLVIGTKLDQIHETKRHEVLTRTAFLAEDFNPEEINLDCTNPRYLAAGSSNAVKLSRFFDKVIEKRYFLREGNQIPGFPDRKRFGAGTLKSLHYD
UniProt Q9H0H5: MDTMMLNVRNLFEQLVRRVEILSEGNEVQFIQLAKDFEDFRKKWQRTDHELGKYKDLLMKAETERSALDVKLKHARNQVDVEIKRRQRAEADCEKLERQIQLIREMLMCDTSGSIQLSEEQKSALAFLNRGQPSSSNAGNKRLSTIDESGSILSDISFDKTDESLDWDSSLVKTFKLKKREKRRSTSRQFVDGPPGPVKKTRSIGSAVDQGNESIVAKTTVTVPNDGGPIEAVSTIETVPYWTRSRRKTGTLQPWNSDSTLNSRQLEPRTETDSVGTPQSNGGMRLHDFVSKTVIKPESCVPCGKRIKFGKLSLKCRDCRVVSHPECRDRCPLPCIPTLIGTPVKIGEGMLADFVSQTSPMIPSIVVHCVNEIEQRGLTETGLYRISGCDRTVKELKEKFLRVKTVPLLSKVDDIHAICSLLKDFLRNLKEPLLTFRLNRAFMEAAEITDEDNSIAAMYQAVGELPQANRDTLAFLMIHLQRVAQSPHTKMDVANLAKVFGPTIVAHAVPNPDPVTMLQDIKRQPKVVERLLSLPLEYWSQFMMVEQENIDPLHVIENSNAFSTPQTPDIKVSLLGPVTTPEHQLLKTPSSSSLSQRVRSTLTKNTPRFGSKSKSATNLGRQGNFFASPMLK
UniProt Q7Z6M1: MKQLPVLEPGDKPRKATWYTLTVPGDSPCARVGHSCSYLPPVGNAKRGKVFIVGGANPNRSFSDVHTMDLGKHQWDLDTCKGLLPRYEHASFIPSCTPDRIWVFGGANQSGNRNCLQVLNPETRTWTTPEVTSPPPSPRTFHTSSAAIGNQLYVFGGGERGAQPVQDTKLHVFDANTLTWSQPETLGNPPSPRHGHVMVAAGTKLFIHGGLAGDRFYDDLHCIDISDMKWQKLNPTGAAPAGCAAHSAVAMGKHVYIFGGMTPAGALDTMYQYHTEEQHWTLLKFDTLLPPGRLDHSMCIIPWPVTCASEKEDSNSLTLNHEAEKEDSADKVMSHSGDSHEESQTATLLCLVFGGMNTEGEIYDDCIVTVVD
UniProt P51153: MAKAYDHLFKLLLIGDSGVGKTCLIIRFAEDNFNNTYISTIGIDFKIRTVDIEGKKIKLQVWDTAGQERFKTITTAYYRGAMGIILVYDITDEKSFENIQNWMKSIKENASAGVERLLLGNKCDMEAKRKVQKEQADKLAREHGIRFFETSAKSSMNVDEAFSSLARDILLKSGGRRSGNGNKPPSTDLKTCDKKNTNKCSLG
UniProt Q96B01: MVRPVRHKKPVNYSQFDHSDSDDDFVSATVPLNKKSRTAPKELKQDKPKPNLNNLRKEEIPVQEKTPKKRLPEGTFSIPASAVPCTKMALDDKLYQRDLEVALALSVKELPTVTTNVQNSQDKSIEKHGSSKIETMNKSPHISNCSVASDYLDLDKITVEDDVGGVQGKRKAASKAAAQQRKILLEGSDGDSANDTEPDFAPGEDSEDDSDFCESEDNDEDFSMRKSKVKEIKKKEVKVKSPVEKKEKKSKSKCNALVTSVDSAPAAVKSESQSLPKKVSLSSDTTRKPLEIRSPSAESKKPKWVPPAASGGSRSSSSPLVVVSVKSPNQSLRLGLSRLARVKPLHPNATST
UniProt Q86YS6: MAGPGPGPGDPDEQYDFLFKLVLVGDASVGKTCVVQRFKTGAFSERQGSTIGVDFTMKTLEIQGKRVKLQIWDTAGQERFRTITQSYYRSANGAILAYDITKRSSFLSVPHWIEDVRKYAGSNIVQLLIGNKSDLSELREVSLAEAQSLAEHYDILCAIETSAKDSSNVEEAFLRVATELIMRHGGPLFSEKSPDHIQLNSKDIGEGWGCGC

What was measured:
Experiment in all cases: log2 fold change, soluble protein after heating vs DMSO (PISA); higher = thermal stabilisation; K562 cells, 10 uM, 30 min; active = over 0.2 and 3.5 SD of the protein, either way, in both replicates (recomputed)
[1] = compound: CC1=C(C=C(C=C1)NC(=O)C2=CC(=CC=C2)C(C)(C)C#N)NC3=CC4=C(C=C3)N=CN(C4=O)C
In short: (§1)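 K562 cells at 2×10^6 cells/mL were treated for 30 min with 10 μM compound, and aliquots were heated for 3 min over 48°C-58°C before pooling. Extraction used PBS with 0.5% NP-40 at 4°C, and soluble protein was the supernatant after 21,000xg for 90 min, measured by TMTpro 16plex LC-MS/MS with channel sums equalised. Thermal stability values, relative to control samples and from duplicates, are log2 fold changes.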

[2] = compound: CC1=C(C=C(C=C1)NC(=O)C2=CC(=CC=C2)N(C)C)NC(=O)C3=CC=C(C=C3)O
In short: as §1

[3] = compound: CC1=CC=C(C=C1)SC2=C3C=C(SC3=CN=C2)C(=O)N
In short: as §1

[4] = compound: CC1=NC(=CC=C1)C2=C(N=C(N2)C(C)(C)C)C3=CC4=NC=CN=C4C=C3
In short: as §1

[5] = compound: CCCCN(Cc1ccc(C(=O)NO)cc1)C(=O)Nc1ccccc1 [Nexturastat A]
In short: as §1

[6] = compound: CCCS(=O)(=O)Nc1ccc(F)c(C(=O)c2c[nH]c3ncc(-c4ccc(Cl)cc4)cc23)c1F [vemurafenib]
In short: as §1

[7] = compound: CCCS(=O)(=O)Nc1ccc(F)c(C(=O)c2c[nH]c3ncc(Cl)cc23)c1F
In short: as §1

[8] = compound: CCCc1cc(C)[nH]c(=O)c1CNC(=O)c1cc(-c2ccnc(N3CCN(C)CC3)c2)cc2c1cnn2C(C)C
In short: as §1

[9] = compound: CCN(CC)Cc1ccc2cc(COC(=O)Nc3ccc(C(=O)NO)cc3)ccc2c1 [givinostat]
In short: as §1

[10] = compound: CCN(CCCOc1ccc2c(Nc3cc(CC(=O)Nc4cccc(F)c4)[nH]n3)ncnc2c1)CCOP(=O)(O)O [barasertib]
In short: as §1

[11] = compound: CC[C@@H]1C(=O)N(C)c2cnc(Nc3ccc(C(=O)NC4CCN(C)CC4)cc3OC)nc2N1C1CCCC1
In short: as §1

[12] = compound: CC[C@@H]1C(=O)N(C)c2cnc(Nc3ccc(C(=O)N[C@H]4CC[C@H](N5CCN(CC6CC6)CC5)CC4)cc3OC)nc2N1C(C)C [volasertib]
In short: as §1

[13] = compound: CC[C@H](C)N1C=C(C2=C(C=C(C=C21)C3=CN=C(C=C3)N4CCNCC4)C(=O)NCC5=C(C=C(NC5=O)C)C)C
In short: as §1

[14] = compound: CC[C@H](C)[C@@H](C(=O)N[C@@H]([C@@H](C)O)C(=O)N[C@@H](CC(C)C)C(=O)[C@]1(CO1)C)NC(=O)[C@H]([C@@H](C)CC)N(C)C(=O)C [epoxomicin]
In short: as §1

[15] = compound: CCn1c(C(=O)N(C2CC2)C2CC2)cc2c3c(ncn3C)c(Nc3cc(C)n(C)n3)nc21
In short: as §1

[16] = compound: CCn1cc(-c2ccnc3[nH]c(-c4cccc(CN(C)C)c4)cc23)c(-c2ccc(NC(=O)N(C)C)cc2)n1
In short: as §1

[17] = compound: CN(C)CC(=O)Nc1ccc2[nH]c(=O)c3ccccc3c2c1
In short: as §1

[18] = compound: CN(CCOC1=CC=C(C=C1)C[C@H]2C(=O)NC(=O)S2)C3=CC=CC=N3 (racemic) [rosiglitazone]
In short: as §1

[19] = compound: CN1C2=C(C3=C1C(=O)N(N=C3)CC4=CC(=CC=C4)N)SC(=C2)S(=O)C
In short: as §1

[20] = compound: CN1CCC(CNc2ccc3ncc(-c4cccc(OC(F)(F)F)c4)n3n2)CC1
In short: as §1

Measured: log2 fold change

RBBP5 (UniProt Q15291)
inactive: [1] -0.016 | [2] 0.034 | [3] -0.022 | [4] -0.017 | [5] 0.036 | [6] -0.02 | [7] -0.011 | [8] -0.047 | [9] 0.002 | [10] -0.03 | [11] 0.045 | [12] -0.02 | [13] -0.061 | [14] -0.012 | [15] 0.013 | [16] 0.045 | [17] -0.037 | [18] -0.021 | [19] -0.009 | [20] 0.065

RAD23B (UniProt P54727)
inactive: [1] -0.022 | [2] 0.011 | [3] 0.003 | [4] 0.01 | [5] -0.052 | [6] -0.018 | [7] -0.036 | [8] -0.046 | [9] -0.029 | [10] -0.005 | [11] 0.006 | [12] 0.078 | [13] -0.03 | [14] 0.011 | [15] 0.024 | [16] -0.013 | [17] -0.033 | [18] -0.058 | [19] -0.018 | [20] 0.051

RAB3GAP1 (UniProt Q15042)
inactive: [1] 0.022 | [2] -0.06 | [3] -0.001 | [4] -0.01 | [5] 0.173 | [6] -0.021 | [7] 0.031 | [8] 0.066 | [9] 0.087 | [10] 0.013 | [11] -0.143 | [12] -0.456 | [13] 0.019 | [14] 0.019 | [15] 0.036 | [16] 0.061 | [17] 0.044 | [18] 0.068 | [19] 0.093 | [20] -0.207

RAB4A (UniProt P20338)
inactive: [1] -0.046 | [2] 0.02 | [3] 0.061 | [4] -0.014 | [5] -0.098 | [6] 0.043 | [7] 0.055 | [8] -0.004 | [9] 0.001 | [10] -0.029 | [11] 0.041 | [12] 0.001 | [13] -0.001 | [14] -0.053 | [15] 0 | [16] 0.021 | [17] -0.018 | [18] 0.013 | [19] -0.043 | [20] 0.027

RAE1 (UniProt P78406)
inactive: [1] 0.018 | [2] 0.002 | [3] -0.003 | [4] 0.009 | [5] 0.106 | [6] 0.046 | [7] 0.085 | [8] 0.089 | [9] -0.224 | [10] -0.006 | [11] 0.046 | [12] -0.067 | [13] 0.105 | [14] -0.031 | [15] -0.08 | [16] 0.043 | [17] 0.046 | [18] -0.026 | [19] 0.126 | [20] -0.101

Two records picked at random from the list so far:
RAD23B (UniProt P54727)
inactive: [1] -0.022 | [2] 0.011 | [3] 0.003 | [4] 0.01 | [5] -0.052 | [6] -0.018 | [7] -0.036 | [8] -0.046 | [9] -0.029 | [10] -0.005 | [11] 0.006 | [12] 0.078 | [13] -0.03 | [14] 0.011 | [15] 0.024 | [16] -0.013 | [17] -0.033 | [18] -0.058 | [19] -0.018 | [20] 0.051

RAB4A (UniProt P20338)
inactive: [1] -0.046 | [2] 0.02 | [3] 0.061 | [4] -0.014 | [5] -0.098 | [6] 0.043 | [7] 0.055 | [8] -0.004 | [9] 0.001 | [10] -0.029 | [11] 0.041 | [12] 0.001 | [13] -0.001 | [14] -0.053 | [15] 0 | [16] 0.021 | [17] -0.018 | [18] 0.013 | [19] -0.043 | [20] 0.027

(listing goes on)

RABL6 (UniProt Q3YEC7)
inactive: [1] -0.029 | [2] -0.017 | [3] -0.017 | [4] -0.027 | [5] 0.015 | [6] -0.008 | [7] -0.007 | [8] -0.004 | [9] 0.026 | [10] 0.008 | [11] 0.031 | [12] 0.025 | [13] -0.008 | [14] -0.019 | [15] 0.014 | [16] 0.067 | [17] -0.057 | [18] 0.005 | [19] -0.009 | [20] -0.069

RAB18 (UniProt Q9NP72)
inactive: [1] 0.017 | [2] 0.007 | [3] -0.001 | [4] -0.038 | [5] -0.015 | [6] -0.039 | [7] 0.017 | [8] -0.009 | [9] -0.003 | [10] -0.003 | [11] 0.053 | [12] 0.029 | [13] -0.02 | [14] 0.006 | [15] -0.005 | [16] -0.056 | [17] -0.025 | [18] -0.017 | [19] -0.044 | [20] 0.038

RAD23A (UniProt P54725)
inactive: [1] -0.016 | [2] 0.031 | [3] -0.027 | [4] 0.027 | [5] -0.116 | [6] -0.02 | [7] 0.018 | [8] -0.048 | [9] -0.051 | [10] -0.009 | [11] 0.056 | [12] 0.092 | [13] -0.035 | [14] -0.021 | [15] 0.046 | [16] 0.069 | [17] -0.012 | [18] -0.009 | [19] -0.052 | [20] -0.013

RAB1A (UniProt P62820)
inactive: [1] 0.001 | [2] 0.048 | [3] -0.004 | [4] 0.008 | [5] -0.113 | [6] -0.021 | [7] -0.028 | [8] 0.059 | [9] 0.009 | [10] -0.003 | [11] -0.016 | [12] 0.068 | [13] -0.016 | [14] 0.028 | [15] 0.052 | [16] 0.002 | [17] -0.021 | [18] -0.015 | [19] -0.031 | [20] 0.067

RAB24 (UniProt Q969Q5)
inactive: [1] 0.044 | [2] 0.006 | [3] 0.01 | [4] 0.027 | [5] -0.043 | [6] 0.021 | [7] 0.039 | [8] -0.016 | [9] -0.027 | [10] -0.003 | [11] 0.006 | [12] -0.009 | [13] -0.008 | [14] 0.057 | [15] -0.01 | [16] 0.015 | [17] 0 | [18] -0.024 | [19] -0.053 | [20] 0.051

RABL3 (UniProt Q5HYI8)
inactive: [1] 0.019 | [2] 0.052 | [3] 0.03 | [4] 0.07 | [5] -0.146 | [6] 0.003 | [7] 0.048 | [8] -0.038 | [9] 0.001 | [10] 0.017 | [11] -0.063 | [12] -0.011 | [13] 0.01 | [14] 0.035 | [15] 0.04 | [16] -0.016 | [17] -0.046 | [18] 0.028 | [19] -0.099 | [20] -0.1

RACGAP1 (UniProt Q9H0H5)
inactive: [1] -0.035 | [2] -0.072 | [3] -0.023 | [4] -0.085 | [5] -0.07 | [6] 0.082 | [7] 0.012 | [8] 0.066 | [9] 0.03 | [10] 0.021 | [11] -0.041 | [12] -0.087 | [13] -0.023 | [14] -0.05 | [15] -0.012 | [16] 0.061 | [17] 0.136 | [18] 0.035 | [19] 0.116 | [20] -0.313

RABEPK (UniProt Q7Z6M1)
inactive: [1] -0.03 | [2] -0.031 | [3] -0.005 | [4] -0.002 | [5] -0.038 | [6] 0.021 | [7] -0.031 | [8] -0.092 | [9] -0.05 | [10] -0.019 | [11] 0.019 | [12] 0.043 | [13] -0.045 | [14] 0.017 | [15] -0.006 | [16] -0.001 | [17] 0.025 | [18] 0.046 | [19] -0.012 | [20] -0.009

RAB13 (UniProt P51153)
inactive: [1] 0.099 | [2] 0.03 | [3] 0.001 | [4] 0.098 | [5] -0.228 | [6] 0.171 | [7] 0.031 | [8] 0.029 | [9] -0.025 | [10] -0.007 | [11] -0.015 | [12] 0.018 | [13] 0 | [14] 0.093 | [15] 0.06 | [16] 0.021 | [17] 0.055 | [18] -0.008 | [19] -0.06 | [20] 0.185

RAD51AP1 (UniProt Q96B01)
inactive: [1] -0.079 | [2] 0 | [3] -0.008 | [4] -0.008 | [5] 0.074 | [6] -0.038 | [7] -0.067 | [8] -0.074 | [9] 0.053 | [10] -0.008 | [11] 0.104 | [12] 0.002 | [13] -0.052 | [14] 0.072 | [15] -0.003 | [16] -0.008 | [17] -0.03 | [18] -0.001 | [19] -0.053 | [20] -0.232

RAB43 (UniProt Q86YS6)
inactive: [1] -0.036 | [2] -0.016 | [3] -0.022 | [4] 0.003 | [5] 0.035 | [6] -0.065 | [7] -0.019 | [8] -0.023 | [9] 0.025 | [10] 0.033 | [11] 0.104 | [12] 0.006 | [13] -0.064 | [14] 0.022 | [15] -0.025 | [16] -0.078 | [17] -0.07 | [18] 0.014 | [19] -0.043 | [20] 0.038
